{
  "source": "patent US12404275B2",
  "about": "“Pyrazolopyrazine derived compounds, pharmaceutical composition and use thereof” (PrimeGene (Beijing) Co., Ltd., priority 2019, dated 2025)",
  "system": "Tyk2",
  "assay": "Mobility shift assay, inhibitory activity on Tyk2 kinase",
  "type": "biochemical",
  "conditions": "ratio of JAK2 IC50 to TyK2 IC50",
  "description": "Inhibitory Activities of the Compounds on JAK1, JAK2, JAK3 and Tyk2 (IC50)\nThe inhibitory activity of compounds on JAK family kinase was analyzed with Mobility shift assay. The screening platform is MSA based microfluidic chip technology, which applies the basic concept of capillary electrophoresis to microfluidic environment. The substrate used in the experiment is a poly-peptide labeled with fluorescent. Under the catalysis of kinase in the reaction system, the substrate is transformed into a product, with the charge changed accordingly. MSA technology could detect the substrate and the product with different charge separately.\nA compound (powder) was dissolved in 100% DMSO to prepare a 10 mM storage solution. […] Detection in duplicate. Baricitinib (Selleckchem, Cat. S2851) was used as positive control. […] Stop test solution was added to stop the reaction and the conversion rate was read by Caliper EZ Reader II.\nConversion %_sample: the conversion rate reading of the sample;\nConversion %_min: mean value of negative control, representing the conversion rate reading without kinase activity;\nCoversion %_max: mean value of positive control, representing the conversion rate reading without compound inhibition.",
  "note": "At least one compound was matched to its structure with a doubt left.",
  "data": [
    {"smiles": "Cn1cc(-c2cn3nccc3c(-c3cn([C@]4(CC#N)C[C@@H](C#N)C4)nc3N)n2)cn1", "note": "[Example 9, (1r,3r)-3-(3-amino-4-(6-(1-methyl-1H-pyrazol-4-yl)pyrazolo[1,5-a]pyrazin-4-yl)-1H-pyrazol-1-yl)-3-(cyanomethyl)cyclobutyl-1-carbonitrile]", "values": [
      {"measurement": "Selectivity of JAK2/TyK2", "result": 82.4}
    ]},
    {"smiles": "Cn1cc(-c2cn3nccc3c(-c3cn([C@]4(CC#N)C[C@H](C#N)C4)nc3N)n2)cn1", "note": "[Example 10, (1s,3s)-3-(3-amino-4-(6-(1-methyl-1H-pyrazol-4-yl)pyrazolo[1,5-a]pyrazin-4-yl)-1H-pyrazol-1-yl)-3-(cyanomethyl)cyclobutyl-1-carbonitrile]", "values": [
      {"measurement": "Selectivity of JAK2/TyK2", "result": 1.9}
    ]}
  ]
}
